Measurements as given in the supplement of paper PMC9578143, “Small-Molecule Ebselen Binds to YTHDF Proteins Interfering with the Recognition of N^6-Methyladenosine-Modified RNAs” (ACS Pharmacology & Translational Science, 2022).
Some of the results follow. Baselines shift from plate to plate; read single values as rough.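 Hits were defined as a z-score below −3.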

The molecules below were run against T1, YTHDF1 YTH domain (aa 365-554) (UniProt Q9BYJ9) (assay: tryptophan fluorescence intensity z-score (mean); higher = higher fluorescence, less quenching (negative = binding / quenching)). Conditions: 10 µM.
T1 sequence (whole entry): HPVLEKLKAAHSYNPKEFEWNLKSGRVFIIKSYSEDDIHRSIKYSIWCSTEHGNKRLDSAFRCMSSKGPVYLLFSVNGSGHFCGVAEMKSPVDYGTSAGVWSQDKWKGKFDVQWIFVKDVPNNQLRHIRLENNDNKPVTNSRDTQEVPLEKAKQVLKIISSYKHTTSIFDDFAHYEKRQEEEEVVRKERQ

Tryptophan fluorescence intensity z-score, inactive:
CC(C)c1c(O)ccc2c1CCC1[C@@](C)(C=O)CCC[C@]21C (some centres undefined) (plate: M 13-14) 0.652
NCCc1ccc(O)c(O)c1 (plate: M 21-22) 0.732
NCCc1ccc(O)c(O)c1 (plate: M 3-4) 0.384
C[C@H](CS)C(=O)N1CCC[C@H]1C(=O)O (plate: M 5-6) -0.0741
CN(Cc1cc(Br)cc(Br)c1N)C1CCCCC1 (plate: M 7-8) -0.371
CC1(C)O[C@@H]2C[C@H]3[C@@H]4C[C@H](F)C5=CC(=O)C=C[C@]5(C)[C@H]4[C@@H](O)C[C@]3(C)[C@]2(C(=O)CO)O1 (plate: M 7-8) -0.306
COC(=O)[C@@]1(C)CCC[C@]2(C)c3ccc(O)c(C(C)C)c3CCC12 (some centres undefined) (plate: M 15-16) 0.443
CC(CN(C)C)CN1c2ccccc2CCc2ccccc21 (centres undefined) (plate: M 7-8) -0.379
CC(C)NCC(O)COc1cccc2[nH]ccc12 (centres undefined) (plate: M 5-6) 0.186
CC(C)=CCC[C@@H](C)[C@@H]1CC[C@]2(C)C3=C(CC[C@@]12C)[C@@]1(C)CC[C@H](O)C(C)(C)[C@@H]1CC3 (plate: M 15-16) 0.494
CC(=O)/C(=C\c1ccccc1)CC(=O)O (plate: M 23-24) 0.13
OC(CCN1CCCC1)(c1ccccc1)C1CCCCC1 (centres undefined) (plate: M 5-6) -0.137
C[N+](C)(C)C[C@H](O)CC(=O)[O-] (plate: M 11-12) 0.0145
CC1=C(/C=C/C(C)=C/C=C/C(C)=C/C=C/C=C(C)/C=C/C=C(C)/C=C/C(=O)[C@]2(C)C[C@@H](O)CC2(C)C)C(C)(C)C[C@H](O)C1 (plate: M 21-22) 0.106
C[C@H]1[C@H]2CC[C@H]3[C@@H]4CC=C5C[C@@H](N(C)C)CC[C@]5(C)[C@H]4CC[C@]23CN1C (plate: M 19-20) 0.555
Nc1nc(N)c2nc(-c3ccccc3)c(N)nc2n1 (plate: M 5-6) 0.193
CC(C)=CCCC1(C)C=Cc2c(O)c3c(c(CC=C(C)C)c2O1)OC12C(=CCCC1C(C)(C)O[C@@]2(C/C=C(\C)C(=O)O)C(=O)O)C3=O (some centres undefined) (plate: M 15-16) -1.83
C=C1CC[C@H](O)C/C1=C/C=C1\CCC[C@]2(C)[C@@H]([C@H](C)/C=C/[C@H](C)C(C)C)CC[C@@H]12 (plate: M 3-4) -0.153
CC(C)(C)NC(=O)[C@H]1CC[C@H]2[C@@H]3CC[C@H]4NC(=O)C=C[C@]4(C)[C@H]3CC[C@]12C (plate: M 13-14) 0.257
C=CC1=C(C)/C(=C/c2[nH]c(Cc3[nH]c(/C=C4\NC(=O)C(C)=C4C=C)c(C)c3CCC(=O)O)c(CCC(=O)O)c2C)NC1=O (plate: M 17-18) -0.955
CC(C)(C)CC(C)(C)c1ccc(OCCOCC[N+](C)(C)Cc2ccccc2)cc1 (plate: M 1-2) -0.345
COc1ccc(CCC(=O)c2c(O)cc(O[C@@H]3O[C@H](CO)[C@@H](O)[C@H](O)[C@H]3O[C@@H]3O[C@@H](C)[C@H](O)[C@@H](O)[C@H]3O)cc2O)cc1O (plate: M 23-24) -0.0612
CCCCOc1ccc(C(=O)CCN2CCCCC2)cc1 (plate: M 3-4) -0.156
C=C1C(=O)O[C@H]2[C@H]1CC/C(C)=C/CC[C@@]1(C)O[C@@H]21 (plate: M 19-20) 0.218
COc1cccc(O)c1O (plate: M 21-22) 0.22
COc1ccc(-c2cc(=O)c3c(OC)c(OC)c(OC)c(OC)c3o2)cc1OC (plate: M 19-20) -0.0303
CCC[C@@H]1C[C@@H](C(=O)N[C@@H]([C@H]2O[C@H](SC)[C@H](O)[C@@H](O)[C@H]2O)[C@@H](C)O)N(C)C1 (plate: M 3-4) 0.0495
C=C1C(N)CC2CC1C2(C)C (stereo not drawn) [3-AMINO-beta-PINENE] (plate: M 17-18) 0.403
CN1CCCN=C1/C=C/c1cccs1 (plate: M 5-6) -0.658
CSCCC(N)C(=O)NC(CC(C)C)C(=O)NC(Cc1ccccc1)C(=O)O (centres undefined) (plate: M 23-24) 0.367
COc1ccc(-c2cc(=O)c3c(OC)c(OC)c(OC)c(OC)c3o2)cc1 (plate: M 19-20) 0.25
CC12CC3CC(C)(C1)CC(N)(C3)C2 (plate: M 7-8) 0.456
CC(C)=CCc1c(O)cc2oc(C)cc(=O)c2c1O (plate: M 13-14) 0.741
O=C(Nc1ccc([N+](=O)[O-])cc1Cl)c1cc(Cl)ccc1O (plate: M 9-10) -0.348
CCOc1ccc(Cc2nccc3cc(OCC)c(OCC)cc23)cc1OCC (plate: M 23-24) -0.133
Nc1ccc(S(=O)(=O)O)cc1.Nc1ccc(S(=O)(=O)O)cc1.[Zn] (plate: M 9-10) 0.344
C#C[C@]1(O)CC[C@H]2[C@@H]3CCC4=Cc5oncc5C[C@]4(C)[C@H]3CC[C@@]21C (plate: M 1-2) -0.329
Cc1cccc(N(C)C(=S)Oc2ccc3ccccc3c2)c1 (plate: M 5-6) -0.0714
O=C(O)c1cccnc1 (plate: M 3-4) -0.254
CCCCc1oc2ccccc2c1C(=O)c1cc(I)c(OCCN(CC)CC)c(I)c1 (plate: M 11-12) -0.144
CCN1CCCC1CNC(=O)c1cc(S(N)(=O)=O)ccc1OC (centres undefined) (plate: M 7-8) -0.241
NNC(=O)c1ccncc1 (plate: M 3-4) -0.0403
CCC(=O)OCC(=O)[C@@]1(OC(=O)CC)[C@@H](C)C[C@H]2[C@@H]3CCC4=CC(=O)C=C[C@]4(C)[C@@]3(F)[C@@H](O)C[C@@]21C (plate: M 7-8) 0.142
CC1(C)O[C@@H]2C[C@H]3[C@@H]4C[C@H](F)C5=CC(=O)CC[C@]5(C)[C@H]4[C@@H](O)C[C@]3(C)[C@]2(C(=O)CO)O1 (plate: M 13-14) 0.77
CC1=CCc2c(cc3oc(C)cc(=O)c3c2O)OC1 (plate: M 13-14) 0.143
CC1(C)CC2C1CCC1(C)OC1CCC2(C)O (centres undefined) (plate: M 21-22) 0.432
C[N+](C)(C)CCOC(N)=O (plate: M 1-2) 0.0815
COC(=O)C[C@H]1C2(C)CC34OC5(C)O[C@@]6([C@H](OC)C(OC(=O)C(C)C)[C@]7(C)C(/C(=C(/OC)C(C)C)C(=O)O[C@H]7c7ccoc7)[C@@]6(O5)[C@H](OC)[C@@]3(OC)C2OC(C)=O)[C@]14C (some centres undefined) (plate: M 15-16) -0.148
CC(C)(C)NC[C@H](O)COc1cccc2c1CCCC2=O (plate: M 11-12) -0.109
COC(=O)[C@H]1[C@H]2C[C@H]3c4[nH]c5cc(OC)ccc5c4CCN3C[C@H]2C[C@@H](OC(=O)c2cc(OC)c(OC)c(OC)c2)[C@@H]1OC (plate: M 23-24) 0.382
COc1cc(O)cc(OC)c1OC (plate: M 15-16) 0.301
O=C(NC(Cc1cc(=O)[nH]c2ccccc12)C(=O)O)c1ccc(Cl)cc1 (centres undefined) (plate: M 23-24) 0.337
O=C1c2c(O)ccc(O)c2C(=O)c2c(NCCNCCO)ccc(NCCNCCO)c21 (plate: M 9-10) -0.133
CO[C@H]1C[C@H](O[C@@H]2/C(C)=C/C[C@@H]3C[C@@H](C[C@]4(CC[C@H](C)[C@@H](C5CCCCC5)O4)O3)OC(=O)[C@@H]3C=C(C)/C(=N/O)[C@H]4OC/C(=C\C=C\[C@@H]2C)[C@]43O)O[C@@H](C)[C@@H]1O (plate: M 9-10) 0.225
Cc1nc2sccn2c(=O)c1CCN1CCC(=C(c2ccc(F)cc2)c2ccc(F)cc2)CC1 (plate: M 13-14) 0.418
C[C@H](CCC(=O)O)[C@H]1CC[C@H]2[C@@H]3C(=O)C[C@@H]4CC(=O)CC[C@]4(C)[C@H]3CC(=O)[C@]12C (plate: M 7-8) 0.396
C[C@H](CCC(=O)O)[C@H]1CC[C@H]2[C@@H]3C(=O)C[C@@H]4CC(=O)CC[C@]4(C)[C@H]3CC(=O)[C@]12C (plate: M 1-2) 0.683
CN1CCN2c3ccccc3Cc3ccccc3C2C1 (centres undefined) (plate: M 13-14) 0.793
N[C@@H](Cc1ccc(O)c(O)c1)C(=O)O (plate: M 13-14) 0.49
CCC(C)C(NC)C(=O)O (centres undefined) (plate: M 17-18) 0.378
O=C(O)CCC(=O)c1ccc(-c2ccccc2)cc1 (plate: M 7-8) 0.103
C[C@H]1[C@H](C)CC[C@]2(C(=O)O)CC[C@]3(C)C(=CC[C@@H]4[C@@]5(C)C[C@@H](O)[C@H](O)[C@@](C)(CO)[C@@H]5[C@H](O)C[C@]43C)[C@H]12 (plate: M 19-20) 0.822
CCCCCCCCCCCC[C@@H](C(=O)O)[C@H](C)C(=O)O (plate: M 15-16) 0.403
O=C(O)c1cc(=O)c2ccccc2[nH]1 (plate: M 23-24) 0.21

Reprinted at random: 3 entries already listed
Tryptophan fluorescence intensity z-score, inactive:
Cc1nc2sccn2c(=O)c1CCN1CCC(=C(c2ccc(F)cc2)c2ccc(F)cc2)CC1 (plate: M 13-14) 0.418
CC(C)c1c(O)ccc2c1CCC1[C@@](C)(C=O)CCC[C@]21C (some centres undefined) (plate: M 13-14) 0.652
CO[C@H]1C[C@H](O[C@@H]2/C(C)=C/C[C@@H]3C[C@@H](C[C@]4(CC[C@H](C)[C@@H](C5CCCCC5)O4)O3)OC(=O)[C@@H]3C=C(C)/C(=N/O)[C@H]4OC/C(=C\C=C\[C@@H]2C)[C@]43O)O[C@@H](C)[C@@H]1O (plate: M 9-10) 0.225
